Some results were stated once for a whole list of compounds, not compound by compound. At least one compound was matched to its structure with a doubt left.
Biological target: T1, S. pneumoniae neuraminidase (NanA) (Streptococcus pneumoniae, UniProt P62575)
T1 construct: residues 116-1035 of S. pneumoniae D39 sialidase A precursor (NanA); made in house; host or cells: E. coli BL21(DE3), pET28a
Assay: Neuraminidase assay with fluorogenic substrate MNN, NanA
Format: biochemical
Conditions: millimolar levels
Method: Neuraminidase assay. Neuraminidase activity of NanA was detected using the fluorogenic substrate 2′-(4-methylumbelliferyl)-α-D-N-acetylneuraminic acid (MNN, Sigma). Reactions contained 1.5 mM MNN, 1 nM of NanA in 2.5 mM sodium phosphate buffer (pH 5). Reactions were allowed to incubate for 2 h at 37° C. before fluorescence intensity was measured at excitation and emission wavelengths of 360 nm and 465 nm in a Tecan microplate reader (Männedorf, Switzerland). NanPs was assayed as above with […] of enzyme in 7.5 mM sodium chloride and 4 mM calcium chloride. Compounds were screened at a concentration of 100 μM before dose-dependence was established. Compounds were obtained from a variety of sources (Otava, Kyiv, Ukraine; Interbioscreen, Moscow, Russia; Chembridge San Diego, USA; Maybridge, Cornwell, UK; Sigma, St Louis, USA; Princeton, Princeton, USA; Lifechem, Burlington, Canada; Enamine, Kiev, Ukraine). Neuraminidase assays with oseltamivir were performed using the hydrolyzed version of the compound. […]
Neuraminidase assay. […] Neuraminidase activity of NanA was detected using the fluorogenic substrate 2′-(4-methylumbelliferyl)-α-D-N-acetylneuraminic acid (MNN, Sigma). […] Reactions were allowed to incubate for 2 h at 37° C. before fluorescence intensity was measured at excitation and emission wavelengths of 360 nm and 465 nm in a Tecan microplate reader (Männedorf, Switzerland). […]

The chains behind the UniProt entries cited, without tags or fusion partners. Residues count along the entry.
UniProt P62575, 116-1035: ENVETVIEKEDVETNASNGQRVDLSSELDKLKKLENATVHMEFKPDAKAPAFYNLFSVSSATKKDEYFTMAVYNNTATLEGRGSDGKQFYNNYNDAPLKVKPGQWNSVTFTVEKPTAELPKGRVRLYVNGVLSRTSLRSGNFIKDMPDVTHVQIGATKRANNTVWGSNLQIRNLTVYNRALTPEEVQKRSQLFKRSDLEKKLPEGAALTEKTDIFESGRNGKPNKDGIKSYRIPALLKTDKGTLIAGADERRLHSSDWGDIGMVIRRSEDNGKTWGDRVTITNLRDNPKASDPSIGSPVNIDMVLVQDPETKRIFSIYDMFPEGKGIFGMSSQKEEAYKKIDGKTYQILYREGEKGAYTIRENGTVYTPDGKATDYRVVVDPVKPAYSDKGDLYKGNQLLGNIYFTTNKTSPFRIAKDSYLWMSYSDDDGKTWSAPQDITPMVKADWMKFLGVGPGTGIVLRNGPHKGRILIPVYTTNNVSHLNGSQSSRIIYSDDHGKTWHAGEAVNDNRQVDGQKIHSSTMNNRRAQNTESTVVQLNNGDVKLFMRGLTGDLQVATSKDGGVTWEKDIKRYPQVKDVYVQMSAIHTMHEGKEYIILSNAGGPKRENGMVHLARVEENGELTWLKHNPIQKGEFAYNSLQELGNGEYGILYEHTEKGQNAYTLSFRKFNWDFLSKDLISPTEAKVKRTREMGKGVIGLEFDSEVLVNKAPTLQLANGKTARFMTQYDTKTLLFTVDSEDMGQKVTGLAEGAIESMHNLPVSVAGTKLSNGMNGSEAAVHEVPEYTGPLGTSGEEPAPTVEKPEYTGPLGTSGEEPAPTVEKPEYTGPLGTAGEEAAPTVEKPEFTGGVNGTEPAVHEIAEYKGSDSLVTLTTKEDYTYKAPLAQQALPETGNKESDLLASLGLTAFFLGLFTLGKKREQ

[Cu+2] [copper]
decrease in NanA activity: ≥ 90%

From US20110280813A1, “NEURAMINIDASE INHIBITORS AND USES THEREOF” (priority 2008, published 2011)
